Measurements as given in PubChem BioAssay AID1794845 (National Center for Advancing Translational Sciences (NCATS), 2023).
The campaign covered roughly 6,900 compounds. Fewer than 10 were called active. Calls come from the whole dose curve; as a rule, active = well fitted curve in the direction sought with a large enough effect; inconclusive = small, poorly fitted or top-dose-only effect, or another doubt; inactive = no such curve, though single readings can be large or run the other way. Some of the results follow.

Chains of the proteins cited; added tags and fusions are not shown. Lines headed by an entry give the natural chain unless they say otherwise; changes in a name come on top.
UniProt C7C422: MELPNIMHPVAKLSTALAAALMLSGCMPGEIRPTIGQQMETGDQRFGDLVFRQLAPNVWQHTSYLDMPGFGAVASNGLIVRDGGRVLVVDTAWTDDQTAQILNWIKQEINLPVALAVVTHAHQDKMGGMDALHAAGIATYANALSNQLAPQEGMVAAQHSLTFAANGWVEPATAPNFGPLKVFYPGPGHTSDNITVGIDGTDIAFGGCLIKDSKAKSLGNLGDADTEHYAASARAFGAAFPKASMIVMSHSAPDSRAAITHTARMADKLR

molecular target: Metallo-beta-lactamase type 2 (Klebsiella pneumoniae) (UniProt C7C422); assay: qHTS to identify inhibitors of the New Delhi Metallo-beta-lactamase (NDM): primary screen against the NCATS Gemini Collection; settings: NDM-1 enzyme, meropenem hydrolysis, absorbance 300 nm; at 38.4 µM (top of the series) unless noted; note: % of control where 0% means no effect
Procedure, shortened: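 NDM-1 at 2 nM final in 50 mM HEPES pH 7.0, 1 uM ZnSO4, 0.01% Tween20, preincubated >30 min with compound. Meropenem 50 uM final added; absorbance at 300 nm after 30 min.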

Activity % (negative = inhibition), inactive:
Cc1ccc(O[C@H]2CCOC[C@H]2NC(=O)CCc2c(C)noc2C)cn1 -0.427%
COC(=O)CCC(=O)N1CCOC(CCCC(C)C)C1 (centres undefined) -5.66%
Cc1nnc2ccc(NC3CCCC3)nn12 1.92%
COc1cccc(C(=O)N2CCC(N3C(=O)c4c(c(C)nn4-c4ccccc4)C3C3CC3)C2)c1 (centres undefined) 21.6%
C[C@@H]1CN(C2(C(=O)NCc3n[nH]c4c3CCC4)Cc3ccccc3C2)C[C@H](C)O1 0.0426%
Cc1cccc(NC(=O)N2CCCCC2c2nc(-c3cnccn3)n[nH]2)c1 (centres undefined) 23.1%
CC1=NOC2(CCN(Cc3ccc(Cl)cc3)CC2)C1 5.13% [at 57.5 µM]
CC(C)CCN1CCNC(=O)C1CC(=O)NCc1ccc(O)cc1O (centres undefined) 8.76%
O=C(Nc1ccccc1)N1CCC(OCc2noc(C3CCCO3)n2)CC1 (centres undefined) -2.88%
CN1C[C@H]2CN(C(=O)c3ccc(C(F)(F)F)cc3)CCN2C1=O 0.274% [at 57.5 µM]
Cc1cccc(C(=O)N2CCN(c3cc(C(F)(F)F)nc(C)n3)CC2)c1 13.7%
CCCS(=O)(=O)N1CCCC1C(=O)Nc1ccccc1-c1ccc(OC)cc1 (centres undefined) 0.323%
O=C(CN1CCCC1)N[C@H]1CC[C@H](Nc2nccc(-c3cccnc3)n2)C1 6.07%
CN1CCCC(c2nc(CCOCC3CCCC3)no2)C1 (centres undefined) 11.1%
Cc1cnc(C2CCOCC2)n1CC1CCN(C2CCCCCC2)CC1 -4.81%
CCn1ccc(C(=O)N2CCC(N3C[C@H](O)C[C@H]3C(=O)NCc3cccnc3)CC2)n1 1.97%
O=C(Cc1ccccc1)NCC1CN(Cc2ccncc2Cl)CC12CN(c1ccccc1)C2 (centres undefined) -0.935%
CCCCCC(=O)Nc1ccc([C@H]2OCC(=O)N(Cc3nccn3C)[C@@H]2CO)cc1 -0.217% [at 57.5 µM]
O=C(CC1CCOCC1)N1CCN(Cc2ccc(F)cc2F)CC1 -7.49%
Cc1ncc2n1C(=O)N(C1CCN(CC3CC3)CC1)C2 1.75% [at 57.5 µM]
Cc1cc(C)n(CC(=O)N2CCCC2c2nc(CCOCC3CCOCC3)no2)n1 (centres undefined) -0.315%
COc1ccccc1N1CCN([C@@H]2[C@H](O)[C@H](CO)O[C@@H]2CNC(=O)c2ccccc2)CC1 2.69%
COc1cccc(-c2nc3ccc(-c4ccc5c(c4)OCO5)cc3o2)c1OC 15.7%
CCOC(=O)c1ccc(CNC(=O)c2cn(CCCc3ccccc3)nn2)o1 2.67%
COc1ccc(C(=O)N2CCC3(CC2)CCC(O)(CN(C)C)CC3)cc1OC -9.83%
NC(=O)[C@@H](Cc1c[nH]c2ccccc12)NC(=O)[C@@H]1CN(S(=O)(=O)c2ccccc2)CCN1C(=O)C1CCNCC1 -3.16%
Cc1cn2nc(C(=O)Nc3cccc(F)c3C)cc2c(N2CCCC2)n1 11.7%
O=C(CC1CCCCC1)N1CCCC1c1nncn1Cc1ccncc1 (centres undefined) -5.35%
COCCN1C(=O)C(CC(=O)O)=C2CCCCC21 (centres undefined) 2.87%
CN(Cc1ccccc1C(F)(F)F)S(C)(=O)=O 4.87% [at 57.5 µM]
CC(=O)N1CCC(C2CCN(C(C)=O)C2)CC1 (centres undefined) -0.839%
CCOc1ccccc1CN1CCC(Cc2nc(-c3cccnc3)n[nH]2)C1 (centres undefined) -2.11%
CCn1ccc(C(=O)N2[C@@H]3CC[C@H]2CC(NC(=O)c2ccc(F)cc2)C3)n1 (some centres undefined) 34%
CC(=O)NC1(C)CN(Cc2ccc(-c3cccc(F)c3)s2)C1 29.8% [at 57.5 µM]
CC(C)NC(=O)N[C@H]1C[C@H]2C(=O)NC[C@@H](CCC(=O)N3CCN(c4ccccn4)CC3)N2C1 0.201%
Cc1c(Cl)cccc1NC(=O)N1CCCC1c1nncn1-c1ccccc1 (centres undefined) 12.2%
O=C(NC1CCC1)c1ccc2nccn2c1 18.1% [at 77.1 µM]
CS(=O)(=O)c1ccc(CC(=O)N[C@H](c2ccccn2)C2CC(O)C2)cc1 (some centres undefined) 2.03%
O=C(C1CCCC1)N1CC2(CCCN(Cc3ccccn3)C2)Cc2ccccc21 (centres undefined) 25.1%
COCCOc1ncccc1-c1noc([C@@H]2CCCN2Cc2ccc(OC)cc2O)n1 6.12% [at 57.5 µM]
CN1CCC(N[C@@H]2CCC[C@@H](C(=O)NC3CC3)CC(=O)N(C)C2)CC1 8.57% [at 57.5 µM]
O=C(c1ccccc1)N1CC2(CCCN2Cc2cccnc2)Cc2ccccc21 (centres undefined) 5.12%
CC[C@H]1CN(C(=O)NC(C)C)CC[C@H]1CC(=O)N(C)CCC#N 4.13% [at 57.5 µM]
Cc1nnn2c(C(=O)NCc3ccc(Cl)cc3)cccc12 -3.28% [at 57.5 µM]
O=C(O)C1=NOC2CN([S+](=O)([O-])c3cc(C(F)(F)F)cc(C(F)(F)F)c3)CC12 (centres undefined) -3.44%
Cc1noc(C)c1CCCNC(=O)c1ccc(NC[C@H]2C[C@H]3C=C[C@H]2C32CC2)nc1 16.1%
CN(Cc1ccc(F)cc1)C1CCCc2ccccc21 (centres undefined) -2.61% [at 57.5 µM]
Cc1ccc(NC(=O)C2CCc3nnc(C4CCN(C(=O)NC(C)(C)C)CC4)n32)cc1 (centres undefined) 4.92%
CN1c2cc(C(=O)NCc3ccccc3)ccc2C(=O)N2CCCC21 (centres undefined) -1.5%
O=C(CN1C(=O)C(c2ccccc2)=NC12CCCC2)NC1CCCC1 -1.45%
CN(c1ccccc1)c1cc(=O)c2ccnc(-c3ccc(CO)cc3)c2o1 27.6% [at 57.5 µM]
CCCc1cc(C(=O)N2CCC(=O)N(CC3CC3)C(C(C)C)C2)cs1 (centres undefined) 0.0611%
COc1ccc(CC2(CO)CCN(c3cc(OC)nc(N)n3)CC2)cc1 0.978%
CCC(CC)n1c(=O)n(CCCc2cccnc2)c2cc(C(=O)O)cnc21 7.44%

Quoted at random: four compounds from above.
Activity % (negative = inhibition), inactive:
CC(=O)NC1(C)CN(Cc2ccc(-c3cccc(F)c3)s2)C1 29.8% [at 57.5 µM]
O=C(O)C1=NOC2CN([S+](=O)([O-])c3cc(C(F)(F)F)cc(C(F)(F)F)c3)CC12 (centres undefined) -3.44%
O=C(CC1CCOCC1)N1CCN(Cc2ccc(F)cc2F)CC1 -7.49%
CCn1ccc(C(=O)N2[C@@H]3CC[C@H]2CC(NC(=O)c2ccc(F)cc2)C3)n1 (some centres undefined) 34%
